This is an account of results in ChEMBL document CHEMBL1133426, “2-Substituted paullones: CDK1/cyclin B-inhibiting property and in vitro antiproliferative activity” (Bioorg Med Chem Lett, 2000).

Experiment [1] can be described thus: cells. The format is functional. Conditions: Homo sapiens.
Experiment [2] concerns HCT-116. Kind of experiment: cells. The format is functional. Conditions: Homo sapiens.

Take `N#CCCc1ccc2c(c1)-c1[nH]c3ccc(C(F)(F)F)cc3c1CC(=O)N2`: the figures for the 50% growth inhibitory concentration (GI50) in experiment [1] and in experiment [2] were 2000 nM and 794 nM, respectively.

Consider `O=C1Cc2c([nH]c3ccc(C(F)(F)F)cc23)-c2ccccc2N1`, for which the values for the GI50 in experiment [1] and in experiment [2] were 79400 nM and 3980 nM, respectively.
